The values below come from paper PMC8699254.

By UniProt entry, the sequences of proteins in these tests, tags left out.
UniProt Q14289: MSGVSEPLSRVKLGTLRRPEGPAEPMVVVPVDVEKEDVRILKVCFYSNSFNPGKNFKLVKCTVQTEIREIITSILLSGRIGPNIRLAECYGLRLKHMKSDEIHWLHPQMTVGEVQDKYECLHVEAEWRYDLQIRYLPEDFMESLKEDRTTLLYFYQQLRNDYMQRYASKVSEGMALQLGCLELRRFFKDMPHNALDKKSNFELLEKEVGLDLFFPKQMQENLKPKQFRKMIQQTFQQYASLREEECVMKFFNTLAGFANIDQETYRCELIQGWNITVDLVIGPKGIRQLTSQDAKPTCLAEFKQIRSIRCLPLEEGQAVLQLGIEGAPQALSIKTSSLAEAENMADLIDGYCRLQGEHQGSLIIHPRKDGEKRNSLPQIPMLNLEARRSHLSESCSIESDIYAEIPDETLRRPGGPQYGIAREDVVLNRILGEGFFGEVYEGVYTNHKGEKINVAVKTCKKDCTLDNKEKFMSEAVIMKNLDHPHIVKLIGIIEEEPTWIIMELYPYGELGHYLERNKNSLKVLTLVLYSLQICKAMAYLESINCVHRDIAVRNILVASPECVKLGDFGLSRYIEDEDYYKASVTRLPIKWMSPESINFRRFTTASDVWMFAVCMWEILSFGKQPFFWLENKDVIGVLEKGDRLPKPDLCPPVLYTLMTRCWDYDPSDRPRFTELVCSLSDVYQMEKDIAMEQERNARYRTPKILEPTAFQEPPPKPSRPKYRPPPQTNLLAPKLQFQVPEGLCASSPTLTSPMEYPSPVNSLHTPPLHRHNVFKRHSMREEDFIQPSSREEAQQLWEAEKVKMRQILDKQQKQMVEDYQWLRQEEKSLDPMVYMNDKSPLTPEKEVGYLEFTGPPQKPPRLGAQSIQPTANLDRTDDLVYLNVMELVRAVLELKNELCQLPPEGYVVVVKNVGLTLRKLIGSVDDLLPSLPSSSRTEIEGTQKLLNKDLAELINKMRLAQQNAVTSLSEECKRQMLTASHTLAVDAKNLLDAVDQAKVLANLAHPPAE

In the experiment the target is T1, Strep-tagged PEAK3 (ST-PEAK3), wild type (human) (UniProt Q6ZS72).
T1 sequence: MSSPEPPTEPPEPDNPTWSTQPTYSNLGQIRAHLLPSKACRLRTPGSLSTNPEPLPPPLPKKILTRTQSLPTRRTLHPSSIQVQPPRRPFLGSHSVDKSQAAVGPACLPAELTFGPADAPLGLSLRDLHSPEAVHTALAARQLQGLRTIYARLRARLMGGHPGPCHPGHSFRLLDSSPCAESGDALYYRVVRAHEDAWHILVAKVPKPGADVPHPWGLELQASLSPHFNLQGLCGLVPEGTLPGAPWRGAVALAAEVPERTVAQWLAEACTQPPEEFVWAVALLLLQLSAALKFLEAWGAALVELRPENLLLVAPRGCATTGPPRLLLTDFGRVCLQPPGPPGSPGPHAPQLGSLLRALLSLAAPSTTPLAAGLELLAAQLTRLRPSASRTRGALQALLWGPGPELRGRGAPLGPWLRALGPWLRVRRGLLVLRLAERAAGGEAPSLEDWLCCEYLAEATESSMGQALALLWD
Description: pull-down; ST-PEAK3 (WT or A436E) pulled down from lysates of U2OS (Figure 5b) and THP1 cells (Figure 5c, 6c), western blot of endogenous partners; THP1 cells also treated or not with pervanadate (0.1 uM, 15 min) or PYK2 inhibitor (1 uM, 2 h). (In western blotting, separated proteins are transferred to a membrane and probed.)

No constants are given. Whether binding was seen depends on the method and setting. In cells and extracts the contact can be indirect. Some entries that bind do so weakly or less than the wild type. Where a sequence is shown, tags or fusion partners need not be part of it.

Consider “FAK-like tyrosine kinase PYK2 (endogenous) (from UniProt Q14289 1-1009) (enzyme)”, for which the binding entry was “binds”.
